Results on 8 substances are retold here after publication PMC8980629.

By UniProt entry, the sequences of proteins in these tests, tags left out. Where a name states a change or a piece, a line headed by the entry shows the natural chain unless it says otherwise. Chains listed by the source or under a name are the forms on record and can include a tag or linker.
UniProt P23258: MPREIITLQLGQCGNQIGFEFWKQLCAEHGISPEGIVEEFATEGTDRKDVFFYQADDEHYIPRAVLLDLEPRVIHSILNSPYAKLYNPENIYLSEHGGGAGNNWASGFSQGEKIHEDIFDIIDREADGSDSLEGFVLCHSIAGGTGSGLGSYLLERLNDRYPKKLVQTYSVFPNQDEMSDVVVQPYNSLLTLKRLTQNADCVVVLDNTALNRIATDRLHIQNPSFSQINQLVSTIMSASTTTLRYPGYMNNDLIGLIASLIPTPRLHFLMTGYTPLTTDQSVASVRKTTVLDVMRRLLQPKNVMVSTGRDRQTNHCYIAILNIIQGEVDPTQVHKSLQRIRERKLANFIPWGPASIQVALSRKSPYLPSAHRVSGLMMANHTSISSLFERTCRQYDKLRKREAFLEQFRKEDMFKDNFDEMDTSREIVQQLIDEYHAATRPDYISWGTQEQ
UniProt P00519: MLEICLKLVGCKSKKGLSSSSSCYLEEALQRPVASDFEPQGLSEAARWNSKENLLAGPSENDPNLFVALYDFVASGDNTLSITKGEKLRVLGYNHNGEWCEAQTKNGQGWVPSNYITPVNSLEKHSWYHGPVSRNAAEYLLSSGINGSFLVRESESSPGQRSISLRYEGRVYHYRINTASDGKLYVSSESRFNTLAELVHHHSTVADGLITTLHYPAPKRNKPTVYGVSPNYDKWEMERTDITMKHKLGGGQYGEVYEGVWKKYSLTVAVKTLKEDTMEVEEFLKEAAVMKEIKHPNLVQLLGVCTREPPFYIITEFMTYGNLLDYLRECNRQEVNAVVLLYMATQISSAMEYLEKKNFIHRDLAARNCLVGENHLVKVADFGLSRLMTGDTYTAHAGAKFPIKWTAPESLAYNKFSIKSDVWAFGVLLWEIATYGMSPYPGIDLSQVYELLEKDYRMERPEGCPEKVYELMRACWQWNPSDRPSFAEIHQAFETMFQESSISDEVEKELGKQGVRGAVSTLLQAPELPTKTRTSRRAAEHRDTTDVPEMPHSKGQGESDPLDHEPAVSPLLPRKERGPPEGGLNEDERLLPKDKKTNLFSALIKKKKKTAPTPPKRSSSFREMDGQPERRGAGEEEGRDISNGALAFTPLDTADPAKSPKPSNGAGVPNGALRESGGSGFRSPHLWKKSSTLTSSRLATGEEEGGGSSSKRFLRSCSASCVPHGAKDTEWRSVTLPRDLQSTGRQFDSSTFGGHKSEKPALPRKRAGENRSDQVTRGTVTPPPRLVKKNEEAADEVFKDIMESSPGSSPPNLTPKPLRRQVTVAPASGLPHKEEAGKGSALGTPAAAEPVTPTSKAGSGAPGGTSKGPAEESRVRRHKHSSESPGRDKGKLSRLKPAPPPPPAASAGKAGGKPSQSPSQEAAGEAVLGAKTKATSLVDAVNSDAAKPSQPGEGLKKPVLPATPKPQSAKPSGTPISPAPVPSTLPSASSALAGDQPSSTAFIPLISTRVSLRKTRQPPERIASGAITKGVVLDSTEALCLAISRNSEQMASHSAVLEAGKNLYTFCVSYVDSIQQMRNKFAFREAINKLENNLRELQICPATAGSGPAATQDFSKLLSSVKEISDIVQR
Myc-c-Abl(K290R) (P00519-2, form named): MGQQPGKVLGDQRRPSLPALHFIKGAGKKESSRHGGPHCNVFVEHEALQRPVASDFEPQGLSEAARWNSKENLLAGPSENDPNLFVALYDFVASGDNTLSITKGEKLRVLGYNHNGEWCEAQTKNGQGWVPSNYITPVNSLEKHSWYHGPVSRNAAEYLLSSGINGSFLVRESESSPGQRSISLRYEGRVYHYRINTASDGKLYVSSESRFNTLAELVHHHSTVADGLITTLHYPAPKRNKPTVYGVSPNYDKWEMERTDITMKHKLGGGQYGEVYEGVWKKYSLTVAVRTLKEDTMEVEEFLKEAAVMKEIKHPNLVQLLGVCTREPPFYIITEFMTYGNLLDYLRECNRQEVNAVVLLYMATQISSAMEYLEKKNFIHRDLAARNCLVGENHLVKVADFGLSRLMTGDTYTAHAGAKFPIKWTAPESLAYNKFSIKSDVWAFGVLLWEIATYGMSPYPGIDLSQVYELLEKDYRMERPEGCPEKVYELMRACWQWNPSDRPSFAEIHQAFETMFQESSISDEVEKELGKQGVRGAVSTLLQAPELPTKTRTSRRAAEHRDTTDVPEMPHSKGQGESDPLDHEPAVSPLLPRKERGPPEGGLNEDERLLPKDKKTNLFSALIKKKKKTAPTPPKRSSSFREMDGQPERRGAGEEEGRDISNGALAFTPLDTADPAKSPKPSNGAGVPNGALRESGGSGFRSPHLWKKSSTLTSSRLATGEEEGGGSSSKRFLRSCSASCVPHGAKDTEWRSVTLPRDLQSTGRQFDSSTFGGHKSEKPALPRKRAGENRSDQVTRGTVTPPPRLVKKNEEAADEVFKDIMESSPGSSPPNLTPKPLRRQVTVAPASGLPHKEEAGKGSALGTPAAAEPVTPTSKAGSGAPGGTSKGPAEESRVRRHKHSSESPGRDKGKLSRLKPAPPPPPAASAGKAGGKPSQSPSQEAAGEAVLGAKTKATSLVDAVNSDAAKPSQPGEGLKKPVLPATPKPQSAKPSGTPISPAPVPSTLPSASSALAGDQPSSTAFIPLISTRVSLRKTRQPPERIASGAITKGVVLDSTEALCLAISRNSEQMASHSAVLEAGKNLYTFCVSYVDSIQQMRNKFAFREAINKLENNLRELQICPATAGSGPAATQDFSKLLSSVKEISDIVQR
Myc-c-Abl (P00519-2, form named): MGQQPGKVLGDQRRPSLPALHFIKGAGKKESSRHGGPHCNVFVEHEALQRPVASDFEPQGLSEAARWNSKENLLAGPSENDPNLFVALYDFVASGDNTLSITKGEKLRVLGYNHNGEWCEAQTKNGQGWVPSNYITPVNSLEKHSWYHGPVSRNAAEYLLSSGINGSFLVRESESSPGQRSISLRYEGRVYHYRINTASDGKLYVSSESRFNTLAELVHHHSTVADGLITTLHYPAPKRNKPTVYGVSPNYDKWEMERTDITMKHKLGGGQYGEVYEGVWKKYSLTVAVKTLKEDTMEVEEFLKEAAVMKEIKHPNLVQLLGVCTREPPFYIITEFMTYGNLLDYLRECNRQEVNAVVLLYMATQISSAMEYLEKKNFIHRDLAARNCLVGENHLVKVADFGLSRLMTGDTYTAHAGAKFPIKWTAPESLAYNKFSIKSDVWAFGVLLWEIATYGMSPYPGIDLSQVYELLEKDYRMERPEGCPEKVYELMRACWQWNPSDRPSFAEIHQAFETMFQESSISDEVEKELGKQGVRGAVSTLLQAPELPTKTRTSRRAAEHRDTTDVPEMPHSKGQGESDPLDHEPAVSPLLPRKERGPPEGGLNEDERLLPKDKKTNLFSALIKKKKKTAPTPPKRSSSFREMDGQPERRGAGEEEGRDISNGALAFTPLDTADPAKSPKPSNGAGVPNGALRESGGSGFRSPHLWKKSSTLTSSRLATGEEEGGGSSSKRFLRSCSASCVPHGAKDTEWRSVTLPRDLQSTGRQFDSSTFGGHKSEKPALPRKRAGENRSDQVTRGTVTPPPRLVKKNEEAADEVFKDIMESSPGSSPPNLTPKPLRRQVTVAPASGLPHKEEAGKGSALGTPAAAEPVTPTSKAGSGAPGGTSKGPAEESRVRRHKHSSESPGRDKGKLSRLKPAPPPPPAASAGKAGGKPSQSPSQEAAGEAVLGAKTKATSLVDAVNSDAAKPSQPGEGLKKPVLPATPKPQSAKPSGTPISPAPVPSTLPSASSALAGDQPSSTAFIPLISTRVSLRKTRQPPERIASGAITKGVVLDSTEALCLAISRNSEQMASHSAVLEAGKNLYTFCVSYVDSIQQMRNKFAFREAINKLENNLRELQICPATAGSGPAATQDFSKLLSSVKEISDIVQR
UniProt Q96RT8: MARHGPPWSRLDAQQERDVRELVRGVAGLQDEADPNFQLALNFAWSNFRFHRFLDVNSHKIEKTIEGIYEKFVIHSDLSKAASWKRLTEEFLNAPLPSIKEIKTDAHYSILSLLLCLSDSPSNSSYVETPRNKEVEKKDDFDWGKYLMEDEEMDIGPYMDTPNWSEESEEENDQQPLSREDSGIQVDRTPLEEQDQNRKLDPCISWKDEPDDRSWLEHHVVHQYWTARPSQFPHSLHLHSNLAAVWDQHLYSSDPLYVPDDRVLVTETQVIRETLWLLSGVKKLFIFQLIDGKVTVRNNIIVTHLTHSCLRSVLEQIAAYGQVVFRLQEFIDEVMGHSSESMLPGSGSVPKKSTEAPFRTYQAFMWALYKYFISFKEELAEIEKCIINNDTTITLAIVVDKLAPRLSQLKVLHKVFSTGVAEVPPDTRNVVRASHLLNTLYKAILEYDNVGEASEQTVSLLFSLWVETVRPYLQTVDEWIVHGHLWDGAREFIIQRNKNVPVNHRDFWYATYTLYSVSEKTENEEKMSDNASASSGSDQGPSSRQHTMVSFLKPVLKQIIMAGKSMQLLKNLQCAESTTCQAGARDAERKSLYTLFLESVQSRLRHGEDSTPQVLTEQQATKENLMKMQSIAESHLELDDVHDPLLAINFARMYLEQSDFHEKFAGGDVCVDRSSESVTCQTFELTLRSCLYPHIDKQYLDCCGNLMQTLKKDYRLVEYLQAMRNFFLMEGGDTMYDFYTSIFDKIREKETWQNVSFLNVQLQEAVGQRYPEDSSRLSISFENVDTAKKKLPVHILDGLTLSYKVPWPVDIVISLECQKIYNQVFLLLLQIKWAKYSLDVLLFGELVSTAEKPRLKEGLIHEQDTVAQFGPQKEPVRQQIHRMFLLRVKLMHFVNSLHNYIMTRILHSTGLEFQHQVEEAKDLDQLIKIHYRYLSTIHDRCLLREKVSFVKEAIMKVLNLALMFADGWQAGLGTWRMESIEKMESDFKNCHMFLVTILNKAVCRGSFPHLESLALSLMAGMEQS
UniProt P42684: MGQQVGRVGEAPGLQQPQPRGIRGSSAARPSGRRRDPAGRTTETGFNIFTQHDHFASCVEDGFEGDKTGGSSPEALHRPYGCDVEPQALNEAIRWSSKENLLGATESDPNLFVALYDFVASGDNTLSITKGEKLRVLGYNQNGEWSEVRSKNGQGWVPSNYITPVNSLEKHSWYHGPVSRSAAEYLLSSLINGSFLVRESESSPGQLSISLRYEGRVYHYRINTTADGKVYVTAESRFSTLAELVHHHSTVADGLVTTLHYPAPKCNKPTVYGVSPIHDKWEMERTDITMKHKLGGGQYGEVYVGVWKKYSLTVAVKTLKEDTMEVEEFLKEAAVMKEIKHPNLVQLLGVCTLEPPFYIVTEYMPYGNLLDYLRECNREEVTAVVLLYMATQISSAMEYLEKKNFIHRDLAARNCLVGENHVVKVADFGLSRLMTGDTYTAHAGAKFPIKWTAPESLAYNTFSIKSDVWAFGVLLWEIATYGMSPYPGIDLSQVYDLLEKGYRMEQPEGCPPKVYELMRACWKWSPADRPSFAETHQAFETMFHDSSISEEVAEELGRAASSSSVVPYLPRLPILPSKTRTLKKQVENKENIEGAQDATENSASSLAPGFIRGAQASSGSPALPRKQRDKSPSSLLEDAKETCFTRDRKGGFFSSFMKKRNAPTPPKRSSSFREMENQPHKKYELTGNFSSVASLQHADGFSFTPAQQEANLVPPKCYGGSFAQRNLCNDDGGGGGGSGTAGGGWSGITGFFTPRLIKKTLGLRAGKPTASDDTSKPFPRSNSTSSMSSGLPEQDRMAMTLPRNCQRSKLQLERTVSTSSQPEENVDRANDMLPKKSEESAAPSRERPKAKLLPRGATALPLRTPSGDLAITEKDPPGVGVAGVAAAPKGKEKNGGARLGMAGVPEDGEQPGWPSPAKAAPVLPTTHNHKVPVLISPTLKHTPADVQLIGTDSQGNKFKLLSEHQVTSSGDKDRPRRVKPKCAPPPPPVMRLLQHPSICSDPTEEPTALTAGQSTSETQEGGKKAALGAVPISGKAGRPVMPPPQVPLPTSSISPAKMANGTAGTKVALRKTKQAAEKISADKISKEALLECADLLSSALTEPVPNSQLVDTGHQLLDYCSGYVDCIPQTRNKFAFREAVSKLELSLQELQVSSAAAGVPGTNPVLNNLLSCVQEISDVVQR

Experiment [1] concerns the target Flag-γ-tubulin (human) (UniProt P23258). The experiment in a line: far-Western, overlay or dot blot; anti-Flag immunoprecipitates from HEK293T resolved by SDS-PAGE and blotted onto PVDF; membrane incubated with purified GST or GST fusion protein 2 h at room temperature; probed with anti-GST; both purified.
The target is the same in experiment [2]. Nature of the experiment: co-IP; anti-Flag immunoprecipitation of lysates of HEK293T cells transfected with Flag-γ-tubulin or Flag-γ-tubulin(Y443F) and Myc-c-Abl or Myc-c-Abl(K290R), treated with or without nilotinib (10 μM) or STI571 (10 μM); immunoblot. Background: A western blot detects proteins with antibodies after separation by electrophoresis.
Another experiment addresses Myc-c-Abl (UniProt P00519). Nature of the experiment: co-IP; anti-Myc immunoprecipitation of lysates of HEK293T cells cotransfected with Myc-c-Abl and γ-tubulin-Flag; immunoblot.
A further experiment addresses Flag-c-Abl (UniProt P00519). Nature of the experiment: far-Western, overlay or dot blot; anti-Flag immunoprecipitates from HEK293T resolved by SDS-PAGE and blotted onto PVDF; membrane incubated with purified GST or GST fusion protein 2 h at room temperature; probed with anti-GST; both purified.
Experiment [3] addresses Flag-γ-tubulin(Y443F) (human) (UniProt P23258). Nature of the experiment: co-IP; anti-Flag immunoprecipitation of lysates of HEK293T cells transfected with Flag-γ-tubulin or Flag-γ-tubulin(Y443F) and Myc-c-Abl or Myc-c-Abl(K290R), treated with or without nilotinib (10 μM) or STI571 (10 μM); immunoblot.
The target of experiment [4] is Flag-γ-tubulin (human) (UniProt P23258). The experiment in a line: co-IP; anti-Flag immunoprecipitation of lysates of HEK293T cells transfected with Flag-γ-tubulin and Myc-c-Abl, cells treated with STI571 (10 μM); immunoblot.
Experiment [5] has the same target. The experiment in a line: condition: only cells treated with nilotinib (10 μM); co-IP; anti-Flag immunoprecipitation of lysates of HEK293T cells transfected with Flag-γ-tubulin and Myc-c-Abl, cells treated with nilotinib (10 μM); immunoblot.
Experiment [6] has as its target GCP5 (endogenous) (human (endogenous in U2OS, MCF-7)) (UniProt Q96RT8). The experiment in a line: co-IP; anti-GCP5 (Santa Cruz) against control IgG, lysates of wild-type or abl1−/−abl2−/− U2OS or MCF-7 cells, or U2OS stably expressing γ-tubulin-Flag or γ-tubulin(Y443F)-Flag; 50 mM Tris-HCl pH 7.5, 150 mM NaCl, 1 mM EDTA, 1% Nonidet P-40; immunoblot.
For experiment [7], the target named is γ-tubulin (endogenous) (human (endogenous in MCF-7, U2OS, HeLa)) (UniProt P23258). Nature of the experiment: co-IP; anti-γ-tubulin against control IgG, MCF-7 lysate, endogenous proteins; immunoblot.
For experiment [8] the target is unchanged. Nature of the experiment: proximity ligation; Duolink in situ PLA with anti-c-Abl (rabbit) and anti-γ-tubulin (mouse) in fixed HeLa cells stably expressing GFP-H2B; interphase and mitosis.
A further experiment concerns the target GST-c-Abl SH3 (UniProt P00519). Nature of the experiment: pull-down; lysates of HEK293T cells expressing Flag-γ-tubulin and Myc-c-Abl incubated 2 h at 4 °C with about 5 μg purified GST or GST fusion protein on glutathione beads; anti-Flag immunoblot; only the target purified.

No constants are given. Whether binding was seen depends on the method and setting. For some of these results: In cells and extracts the contact can be indirect. Some entries that bind do so weakly or less than the wild type.

On to “GST-c-Abl SH3 (from UniProt P00519 61-121) (domain or fragment)”, for which the binding result with Flag-γ-tubulin (human) [1] is listed as “no binding”.

For “Myc-c-Abl(K290R) (from UniProt P00519-2 1-1149) (enzyme)”, the binding result with Flag-γ-tubulin (human) [2] is reported as “no binding”.

Consider “γ-tubulin-Flag (HEK293T) (from UniProt P23258 1-451)”, for which the binding entry in the experiment with Myc-c-Abl is given as “binds”.

Consider “GST-γ-tubulin (from UniProt P23258 1-451)”, for which, in the experiment with Flag-c-Abl, the binding entry was “binds”.

With “Myc-c-Abl (from UniProt P00519-2 1-1149) (enzyme)”, the binding entry is given as “binds” with Flag-γ-tubulin (human) [2], “binds” in experiment [3], “no binding (condition: cells treated with STI571 (10 μM))” in the experiment with Flag-γ-tubulin (human) [4] and “no binding” in the experiment with Flag-γ-tubulin (human) [5].

Regarding “c-Abl (endogenous) (from UniProt P00519 1-1130) (enzyme)”, the binding result in experiment [6], in experiment [7] and in [8] was “binds” each time.

As for “Arg (endogenous) (from UniProt P42684 1-1182) (enzyme)”, in experiment [7], the binding entry is on record as “binds”.

Consider “Flag-γ-tubulin (from UniProt P23258 1-451)”, for which the binding result with GST-c-Abl SH3 is “no binding”.
